Literature values as cited in US20240294697A1, “AMPHIPHILIC OLIGOMERS AND SELF-ASSEMBLING HYDROGELS FORMED THEREFROM” (THE GOVERNING COUNCIL OF THE UNIVERSITY OF TORONTO, priority 2021, published 2024).
At least one compound was matched to its structure with a doubt left.

Test system: human OA cartilage
Conditions: in vitro; cited from earlier work

Question: For `Cc1ccc(-c2cc(C(F)(F)F)nn2-c2ccc(S(N)(=O)=O)cc2)cc1` [CXB, celecoxib], which “lowest concentration reducing PGE2 levels and increasing proteoglycan synthesis” value is on record?
Answer: 0.38 µg/mL
